Square brackets hold non-standard residues; d marks the D form. Ends that are not written are not given here. pGlu = O=C1CC[C@@H](C(=O)O)N1
Experiment: general procedure: Boc solid-phase peptide synthesis; benzhydrylamine HCl resin, about 1 meq NH2/g (Advanced ChemTech); DIC
Details: whole synthesis, analytical HPLC (HP-1090, W-Porex C18), TFA or HCl salt

[pGlu]HWSY
final HPLC purity: >95%

Reference: US5258492A (The Administrators of the Tulane Educational Fund, priority 1991, dated 1993)
